Reference: PubChem BioAssay AID256 (DTP/NCI, 2004)
The list is a part of this screen's results and no random one: it is rich in T/C values a quarter to a half above the control, in often repeated tests (any T/C) and in doses without a T/C. Other doses and runs of a compound stand elsewhere. T/C: endpoint of the treated group in % of that of the vehicle group. Some doses have a count of surviving animals in place of a T/C: the source holds a T/C of zero for them, seemingly a mark for toxic or unscored doses. Some survivor counts are full or nearly so, which does not show that the dose was tolerated: the source hardly ever lists a survival T/C far under the control, and the zero likely stands for such cases as well. Survivors were counted at the toxicity check, usually on the fifth day, unless a day is given; later deaths do not show. Schedules are NCI's codes, taken here to give the interval after Q, in days (D) or hours (H), and the number of doses after X. For survival time, the PubChem record calls one and a half times the control and up active, and a quarter to a half above the control has no call in these data; cut-offs in other NCI protocols can differ.

System: CD2F1 mice, L1210 leukemia ip, survival T/C
Test: NCI In Vivo Anticancer Drug Screen. Data for tumor model L1210 Leukemia (intraperitoneal) in CD2F1 (CDF1) mice
Conditions: higher T/C = longer survival
Procedure, shortened: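 Vehicle-treated tumor-bearing mice served as controls (C) for compound-treated mice (T). Reported figure is T divided by C.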

[1] = T/C endpoint: mean survival time, dose: 200.0 mg/kg/injection, schedule: Q04DX003 (ip), vehicle: saline with Tween-80
[2] = T/C endpoint: mean survival time, dose: 400.0 mg/kg/injection, schedule: Q04DX003 (ip), vehicle: saline with Tween-80
[3] = T/C endpoint: mean survival time, dose: 400.0 mg/kg/injection, schedule: Q04DX003 (ip), vehicle: saline
[4] = T/C endpoint: mean survival time, dose: 100.0 mg/kg/injection, schedule: Q04DX003 (ip), vehicle: other
[5] = T/C endpoint: mean survival time, dose: 200.0 mg/kg/injection, schedule: Q04DX003 (ip), vehicle: other
[6] = T/C endpoint: mean survival time, dose: 100.0 mg/kg/injection, schedule: Q04DX003 (ip), vehicle: saline with Tween-80
[7] = T/C endpoint: mean survival time, dose: 100.0 mg/kg/injection, schedule: Q01DX009 (ip), vehicle: saline with Tween-80
[8] = T/C endpoint: mean survival time, dose: 25.0 mg/kg/injection, schedule: Q04DX003 (ip), vehicle: saline
[9] = T/C endpoint: mean survival time, dose: 200.0 mg/kg/injection, schedule: Q04DX003 (ip), vehicle: saline
[10] = T/C endpoint: mean survival time, dose: 400.0 mg/kg/injection, schedule: Q01DX009 (ip), vehicle: saline with Tween-80

C=CCSc1ncnc2c1cnn2C1OC(CO)C(O)C1O (centres undefined)
survivor count (T/C endpoint: mean survival time, dose: 200.0 mg/kg/injection, schedule: Q01DX005 (ip), vehicle: water): 1 of 3
survivor count (T/C endpoint: mean survival time, dose: 400.0 mg/kg/injection, schedule: Q01DX005 (ip), vehicle: water): 2 of 3

[N-]=[N+]=C1N=CN=C1c1ncnn1Cc1ccccc1
survivor count (T/C endpoint: mean survival time, dose: 100.0 mg/kg/injection, schedule: Q01DX001 (ip), vehicle: other): 0 of 6
survivor count (T/C endpoint: mean survival time, dose: 200.0 mg/kg/injection, schedule: Q01DX001 (ip), vehicle: other): 0 of 6
survivor count (T/C endpoint: mean survival time, dose: 400.0 mg/kg/injection, schedule: Q01DX001 (ip), vehicle: other): 0 of 6

CCOC(=O)C(=CCBr)C(=O)OCC
survivor count (T/C endpoint: mean survival time, dose: 25.0 mg/kg/injection, schedule: Q01DX009 (ip), vehicle: other): 2 of 6
survivor count (T/C endpoint: mean survival time, dose: 50.0 mg/kg/injection, schedule: Q01DX009 (ip), vehicle: other): 0 of 6
survivor count (T/C endpoint: mean survival time, dose: 100.0 mg/kg/injection, schedule: Q01DX009 (ip), vehicle: other): 0 of 6
survivor count (T/C endpoint: mean survival time, dose: 200.0 mg/kg/injection, schedule: Q01DX009 (ip), vehicle: other): 0 of 6
survivor count (T/C endpoint: mean survival time, dose: 400.0 mg/kg/injection, schedule: Q01DX009 (ip), vehicle: other): 0 of 6

O=[N+]([O-])c1cc(C(F)(F)F)ccc1F
survivor count [1]: 0 of 6
survivor count [2]: 0 of 6

CCCCN1CCNCC1
survivor count [3]: 0 of 6

C=CC[n+]1ccccc1Cc1ccccc1
survivor count (T/C endpoint: mean survival time, dose: 100.0 mg/kg/injection, schedule: Q01DX001 (ip), vehicle: saline): 0 of 3

CC[C@H]1CN2CCc3cc(OC)c(OC)cc3[C@@H]2C[C@@H]1C[C@H]1NCCc2cc(O)c(OC)cc21
T/C (T/C endpoint: mean survival time, dose: 4.0 mg/kg/injection, schedule: Q01DX015 (ip), vehicle: saline): 128 % of control

c1c2c(cc3c1OCO3)CNCC2
survivor count (T/C endpoint: mean survival time, dose: 200.0 mg/kg/injection, schedule: Q01DX001 (ip), vehicle: saline): 2 of 6
survivor count (T/C endpoint: mean survival time, dose: 400.0 mg/kg/injection, schedule: Q01DX001 (ip), vehicle: saline): 0 of 6

CCCCNS(=O)(=O)c1ccccc1
survivor count [2]: 2 of 6

O=Cc1cccc2ccc3ccccc3c12
survivor count (T/C endpoint: median survival time, dose: 400.0 mg/kg/injection, schedule: Q04DX002 (ip), vehicle: saline with Tween-80): 0 of 3

Nc1ccc(OCC(O)CN2CCN(c3ccccc3)CC2)cc1 (centres undefined)
survivor count (T/C endpoint: mean survival time, dose: 400.0 mg/kg/injection, schedule: Q04DX002 (ip), vehicle: saline with Tween-80): 3 of 3

COc1ccc(C(CO)CC(=O)NCCN(C)C)cc1 (centres undefined)
survivor count (T/C endpoint: mean survival time, dose: 400.0 mg/kg/injection, schedule: Q04DX002 (ip), vehicle: saline): 3 of 3

CCCc1nc2[nH]c(N)nc(=S)c2[nH]1
survivor count (T/C endpoint: mean survival time, dose: 50.0 mg/kg/injection, schedule: Q01DX005 (ip), vehicle: other): 3 of 6
survivor count (T/C endpoint: mean survival time, dose: 100.0 mg/kg/injection, schedule: Q01DX005 (ip), vehicle: other): 0 of 6
survivor count (T/C endpoint: mean survival time, dose: 200.0 mg/kg/injection, schedule: Q01DX005 (ip), vehicle: other): 0 of 6

N=c1ccc2ccccc2n1O
survivor count [4]: 0 of 6
survivor count [5]: 0 of 6
survivor count (T/C endpoint: mean survival time, dose: 400.0 mg/kg/injection, schedule: Q04DX003 (ip), vehicle: other): 0 of 6

O=C(O)C1C2CCC(C2)C1C(=O)O (centres undefined)
survivor count [2]: 2 of 6

CC(C)NC(C)C
survivor count (T/C endpoint: mean survival time, dose: 100.0 mg/kg/injection, schedule: Q04DX002 (ip), vehicle: saline with Tween-80): 3 of 3

Cc1ccc(S(=O)(=O)Nc2c([N+](=O)[O-])cc([N+](=O)[O-])c3ccccc23)cc1
survivor count [6]: 1 of 6
survivor count [1]: 0 of 6
survivor count [2]: 0 of 6

N#CC1CC2C=CC1C2 (centres undefined)
survivor count [6]: 0 of 6
survivor count [1]: 0 of 6
survivor count [2]: 0 of 6

Nc1cc2c(c[n+](Cc3ccccc3)c3ccccc23)c2ccccc12
survivor count (T/C endpoint: mean survival time, dose: 3.13 mg/kg/injection, schedule: Q04DX003 (ip), vehicle: other): 3 of 6

CC1CC([NH-])C([NH-])C(C)(C)C1.[Cl][Pt+2][Cl] (centres undefined)
T/C (T/C endpoint: median survival time, dose: 20.0 mg/kg/injection, schedule: Q04DX003 (ip), vehicle: Klucel (hydroxypropylcellulose) (HPC)): 125 % of control
T/C (T/C endpoint: median survival time, dose: 40.0 mg/kg/injection, schedule: Q04DX003 (ip), vehicle: Klucel (hydroxypropylcellulose) (HPC)): 136 % of control
T/C (T/C endpoint: median survival time, dose: 80.0 mg/kg/injection, schedule: Q04DX003 (ip), vehicle: Klucel (hydroxypropylcellulose) (HPC)): 147 % of control
T/C (T/C endpoint: median survival time, dose: 200.0 mg/kg/injection, schedule: Q04DX003 (ip), vehicle: Klucel + Tween-80): 147 % of control

Cc1ccccc1NCC#N
survivor count [7]: 0 of 6
survivor count [1]: 0 of 6
survivor count [2]: 0 of 6

COc1ccccc1[As](=O)(O)CC(O)COc1ccc(Cl)cc1Cl (centres undefined)
survivor count [8]: 4 of 6

c1ccc(CCN2CCC(CCc3c[nH]c4ccccc34)CC2)cc1
survivor count [7]: 5 of 6
survivor count (T/C endpoint: mean survival time, dose: 200.0 mg/kg/injection, schedule: Q01DX009 (ip), vehicle: saline with Tween-80): 0 of 6

O=CN(O)CC(=O)O.[Cu]
survivor count (T/C endpoint: mean survival time, dose: 12.5 mg/kg/injection, schedule: Q01DX009 (ip), vehicle: acetone): 0 of 6
survivor count [8]: 1 of 6
survivor count (T/C endpoint: mean survival time, dose: 50.0 mg/kg/injection, schedule: Q04DX003 (ip), vehicle: saline): 1 of 6
survivor count (T/C endpoint: mean survival time, dose: 100.0 mg/kg/injection, schedule: Q04DX003 (ip), vehicle: saline): 0 of 6
survivor count [9]: 0 of 6
survivor count [3]: 0 of 6

CCC[CH2][Sn]([Cl])([Cl])[CH2]CCC
survivor count [6]: 0 of 6
survivor count [1]: 0 of 6
survivor count [2]: 0 of 6

OC1C=CC(O)C1 (centres undefined)
survivor count (T/C endpoint: mean survival time, dose: 300.0 mg/kg/injection, schedule: Q01DX001 (ip), vehicle: saline): 0 of 6

Clc1cccc(-n2ccnc2)c1
survivor count [10]: 5 of 6

Cc1cc(N(CCOS(C)(=O)=O)CCOS(C)(=O)=O)ccc1C=Nc1ccc(C(=O)O)c(O)c1
T/C (T/C endpoint: mean survival time, dose: 6.25 mg/kg/injection, schedule: Q01DX009 (ip), vehicle: saline with Tween-80): 135 % of control
T/C (T/C endpoint: mean survival time, dose: 9.0 mg/kg/injection, schedule: Q01DX009 (ip), vehicle: saline with Tween-80): 135 % of control
survivor count (T/C endpoint: mean survival time, dose: 25.0 mg/kg/injection, schedule: Q01DX009 (ip), vehicle: saline with Tween-80): 2 of 6

Nc1ccc(CNC(=O)Nc2ccc(S(=O)(=O)F)cc2)cc1
survivor count [6]: 3 of 3

CNC(=O)Cc1ccc2cc(OC)c(OC)cc2c1
survivor count [10]: 0 of 6

[Cl][Pt][Cl].c1ccc([AsH](CC[AsH](c2ccccc2)c2ccccc2)c2ccccc2)cc1
survivor count [1]: 1 of 4
survivor count [2]: 0 of 4

CCNC(=O)OCc1cn2c(c1COC(=O)NCC)CCC2
survivor count (T/C endpoint: mean survival time, dose: 25.0 mg/kg/injection, schedule: Q04DX003 (ip), vehicle: other): 0 of 5
survivor count (T/C endpoint: mean survival time, dose: 50.0 mg/kg/injection, schedule: Q04DX003 (ip), vehicle: other): 0 of 5
survivor count [4]: 0 of 5
survivor count [5]: 0 of 5

O=C(O)CCC1NCCCO1 (centres undefined)
survivor count [9]: 6 of 6
